Results: the supplement of paper PMC4604168 (melanoma cell lines)
Some of the results follow. Many values rest on one well or one pass, so single values are uncertain.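 Cells were imaged in 1,536-well plates, and nuclei stained with an antibody against cleaved PARP were counted against all DNA-stained nuclei to give the apoptosis fraction. Screening doses were chosen to leave most cells alive, and resting and induced cleaved-PARP levels differ strongly between cell lines.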

What was measured:
Experiment in all cases: cleaved PARP positive nuclei fraction relative to DMSO control; melanoma cells; higher = more apoptosis
Settings in all cases: library dose: low library concentration; 72 h
MZ2-MEL = tested on: MZ2-MEL
MeWo = tested on: MeWo
RPMI7951 = tested on: RPMI7951
RVH-421 = tested on: RVH-421
SkMel28 = tested on: SkMel28
SkMel2 = tested on: SkMel2
SkMel30 = tested on: SkMel30
SkMel5 = tested on: SkMel5
UACC257 = tested on: UACC257
UACC62 = tested on: UACC62
WM115 = tested on: WM115
WM1716 = tested on: WM1716
WM1745 = tested on: WM1745
WM3526 = tested on: WM3526
WM3619 = tested on: WM3619
WM451Lu = tested on: WM451Lu

Row | SMILES | cleaved PARP positive nuclei fraction (MZ2-MEL) [%] | cleaved PARP positive nuclei fraction (MeWo) [%] | cleaved PARP positive nuclei fraction (RPMI7951) [%] | cleaved PARP positive nuclei fraction (RVH-421) [%] | cleaved PARP positive nuclei fraction (SkMel28) [%] | cleaved PARP positive nuclei fraction (SkMel2) [%] | cleaved PARP positive nuclei fraction (SkMel30) [%] | cleaved PARP positive nuclei fraction (SkMel5) [%] | cleaved PARP positive nuclei fraction (UACC257) [%] | cleaved PARP positive nuclei fraction (UACC62) [%] | cleaved PARP positive nuclei fraction (WM115) [%] | cleaved PARP positive nuclei fraction (WM1716) [%] | cleaved PARP positive nuclei fraction (WM1745) [%] | cleaved PARP positive nuclei fraction (WM3526) [%] | cleaved PARP positive nuclei fraction (WM3619) [%] | cleaved PARP positive nuclei fraction (WM451Lu) [%]
1 | COCC[n+]1c2c(n(Cc3cnccn3)c1C)C(=O)c1ccccc1C2=O + C[C@@H]1CCN(C(=O)CC#N)C[C@@H]1N(C)c1ncnc2[nH]ccc12 [CP690550] (first compound 0.0004 µM, partner dose 1 µM) | 235 | 131 | 126 | 227 | 302 | 134 | 1940 | 1150 | 41.3 | 138 | 77.4 | 269 | 100 | 164 | 91.6 | 299
2 | O=C(CCCCCCC(=O)Nc1ccccc1)NO [vorinostat] + CN(C)S(=O)(=O)c1ccc2c(c1)/C(=C/c1cc3c([nH]1)CCCC3)C(=O)N2 [SU6656] (first compound 0.08 µM, partner dose 0.4 µM) | 257 | 58.8 | 68.1 | 83.3 | 139 | 68.6 | 246 | 66.6 | 153 | 185 | 107 | 65.2 | 84.5 | 217 | 94.6 | 66.1
3 | Clc1ccc(Nc2nnc(Cc3ccncc3)c3ccccc23)cc1 [vatalanib] + NC(=O)Nc1cc(-c2cccc(F)c2)sc1C(=O)N[C@H]1CCCNC1 [AZD7762] (first compound 2 µM, partner dose 0.02 µM) | 184 | 58.9 | 172 | 49 | 213 | 65.1 | 58.3 | 74.8 | 54.6 | 31.4 | 73.4 | 83.3 | 101 | 270 | 130 | 56.6
4 | OCc1c[nH]c2ccccc12 [Indole-3-carbinol] + Oc1cc(-c2nc(-c3ccccc3)[nH]c2-c2ccncc2)ccc1Cl [L779450] (first compound 0.8 µM, partner dose 0.2 µM) | 38 | 37 | 110 | 153 | 113 | 86.4 | 267 | 77.7 | 255 | 133 | 121 | 56.7 | 92.3 | 75.6 | 95.8 | 120
5 | OCc1c[nH]c2ccccc12 [Indole-3-carbinol] + N#Cc1c(O)c2c(-c3ccc(-c4ccccc4O)cc3)csc2[nH]c1=O [A769662] (first compound 0.8 µM, partner dose 2 µM) | 21.3 | 221 | 28.9 | 134 | 63.7 | 67.7 | 123 | 207 | 119 | 60.6 | 72.6 | 50.9 | 77.2 | 74.1 | 87.2 | 64.9
6 | C=CCNC1=C2C[C@@H](C)C[C@H](OC)[C@H](O)[C@@H](C)/C=C(\C)[C@H](OC(N)=O)[C@@H](OC)/C=C\C=C(/C)C(=O)NC(=CC1=O)C2=O [Tanespimycin] + CC1(C)NC(=O)N(c2ccc([N+](=O)[O-])c(C(F)(F)F)c2)C1=O [nilutamide] (first compound 0.002 µM, partner dose 1 µM) | 54.4 | 79.7 | 41.7 | 59.5 | 148 | 45.5 | 58.4 | 79.6 | 190 | 61.2 | 113 | 83.3 | 80.3 | 54.5 | 105 | 35.3
7 | NC(=O)Nc1cc(-c2cccc(F)c2)sc1C(=O)N[C@H]1CCCNC1 + CN(C)S(=O)(=O)c1ccc2c(c1)/C(=C/c1cc3c([nH]1)CCCC3)C(=O)N2 [SU6656] (first compound 0.02 µM, partner dose 0.4 µM) | 93.6 | 37.3 | 65.4 | 104 | 90 | 30.5 | 187 | 70.8 | 114 | 105 | 304 | 69.5 | 116 | 90.2 | 85.9 | 28.1
8 | C[C@]1(c2nc3c(C(N)=O)cccc3[nH]2)CCCN1 [Veliparib] + COc1cc(Nc2ncc(F)c(Nc3ccc4c(n3)NC(=O)C(C)(C)O4)n2)cc(OC)c1OC [Tamatinib] (first compound 1.4 µM, partner dose 0.4 µM) | 220 | 56.7 | 114 | 87.5 | 311 | 61.4 | 90.6 | 52.2 | 113 | 90.3 | 121 | 127 | 122 | 42.5 | 76.9 | 104
9 | Nc1cccc2c1CN(C1CCC(=O)NC1=O)C2=O (centres undefined) [lenalidomide] + CN(C)S(=O)(=O)c1ccc2c(c1)/C(=C/c1cc3c([nH]1)CCCC3)C(=O)N2 [SU6656] (first compound 1 µM, partner dose 0.4 µM) | 156 | 123 | 106 | 121 | 143 | 92.8 | 92.6 | 84.6 | 143 | 159 | 136 | 70.3 | 108 | 59.9 | 97.9 | 92.5
